Data on 1 molecule can be found in paper PMC4894417, “Quantitative High-Throughput Profiling of Environmental Chemicals and Drugs that Modulate Farnesoid X Receptor” (Scientific Reports, 2014).

The subject of the series is FXR-UAS-bla HEK293T cells.

Regarding `COC(=O)C1=C(C)NC(C)=C(C(=O)OC)C1c1ccccc1[N+](=O)[O-]` [Nifedipine], the “Cytotoxicity IC50” value is recorded as “Inactive”.
